Source: the supplement of paper PMC11006884
The targets with a hit were mostly taken out for another list; the other results follow. Single values of this set are uncertain. The list shows a part of the results, in another mix than the full data.

Amino acid sequences for entries named in this document (tags omitted). A change or cut given only in a name is not applied to a line headed by its entry.
UniProt P55196: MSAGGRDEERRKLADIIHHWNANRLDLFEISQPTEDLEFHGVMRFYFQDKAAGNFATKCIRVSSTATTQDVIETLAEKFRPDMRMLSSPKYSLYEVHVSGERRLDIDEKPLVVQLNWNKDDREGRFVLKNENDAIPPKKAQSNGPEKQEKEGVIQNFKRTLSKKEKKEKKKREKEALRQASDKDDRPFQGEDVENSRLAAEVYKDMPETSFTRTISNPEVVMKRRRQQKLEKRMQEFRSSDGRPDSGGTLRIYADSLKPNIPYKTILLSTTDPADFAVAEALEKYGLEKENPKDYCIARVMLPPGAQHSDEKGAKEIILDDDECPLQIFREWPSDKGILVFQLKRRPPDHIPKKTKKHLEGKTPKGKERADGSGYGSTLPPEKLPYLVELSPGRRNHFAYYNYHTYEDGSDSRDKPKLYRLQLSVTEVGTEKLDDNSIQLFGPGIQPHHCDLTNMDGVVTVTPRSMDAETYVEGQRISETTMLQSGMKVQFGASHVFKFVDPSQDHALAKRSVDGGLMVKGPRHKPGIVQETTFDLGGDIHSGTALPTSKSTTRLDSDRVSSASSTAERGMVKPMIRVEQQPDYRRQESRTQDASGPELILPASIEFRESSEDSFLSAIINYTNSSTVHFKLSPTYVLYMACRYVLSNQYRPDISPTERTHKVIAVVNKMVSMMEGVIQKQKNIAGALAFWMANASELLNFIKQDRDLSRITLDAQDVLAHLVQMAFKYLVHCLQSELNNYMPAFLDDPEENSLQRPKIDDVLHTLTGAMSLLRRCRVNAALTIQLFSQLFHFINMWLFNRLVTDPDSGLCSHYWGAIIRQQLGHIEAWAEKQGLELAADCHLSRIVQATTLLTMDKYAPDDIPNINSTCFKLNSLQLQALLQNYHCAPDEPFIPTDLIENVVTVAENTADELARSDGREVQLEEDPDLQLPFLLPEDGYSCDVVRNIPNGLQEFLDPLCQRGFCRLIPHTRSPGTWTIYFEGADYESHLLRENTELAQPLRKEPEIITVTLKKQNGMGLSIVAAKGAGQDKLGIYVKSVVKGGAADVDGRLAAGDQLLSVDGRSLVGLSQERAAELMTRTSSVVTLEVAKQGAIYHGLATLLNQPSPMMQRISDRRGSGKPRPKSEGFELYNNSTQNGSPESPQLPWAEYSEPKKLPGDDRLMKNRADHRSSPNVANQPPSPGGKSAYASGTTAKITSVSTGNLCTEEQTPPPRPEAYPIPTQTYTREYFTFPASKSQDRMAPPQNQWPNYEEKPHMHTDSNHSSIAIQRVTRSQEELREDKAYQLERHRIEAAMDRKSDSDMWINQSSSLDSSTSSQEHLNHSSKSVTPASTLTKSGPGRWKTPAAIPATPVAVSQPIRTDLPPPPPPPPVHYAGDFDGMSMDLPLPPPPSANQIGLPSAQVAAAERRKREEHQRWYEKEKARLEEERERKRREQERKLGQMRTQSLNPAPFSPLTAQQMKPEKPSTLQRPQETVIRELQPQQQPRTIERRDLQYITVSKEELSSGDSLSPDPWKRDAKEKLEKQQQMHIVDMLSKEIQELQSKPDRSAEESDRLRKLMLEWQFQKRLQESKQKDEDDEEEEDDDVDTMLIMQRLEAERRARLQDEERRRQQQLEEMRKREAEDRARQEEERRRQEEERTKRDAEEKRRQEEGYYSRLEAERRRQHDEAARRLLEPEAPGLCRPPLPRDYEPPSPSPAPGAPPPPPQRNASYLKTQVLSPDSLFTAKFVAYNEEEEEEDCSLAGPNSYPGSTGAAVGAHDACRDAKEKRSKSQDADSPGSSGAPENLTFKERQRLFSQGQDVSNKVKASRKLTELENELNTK
UniProt P54886: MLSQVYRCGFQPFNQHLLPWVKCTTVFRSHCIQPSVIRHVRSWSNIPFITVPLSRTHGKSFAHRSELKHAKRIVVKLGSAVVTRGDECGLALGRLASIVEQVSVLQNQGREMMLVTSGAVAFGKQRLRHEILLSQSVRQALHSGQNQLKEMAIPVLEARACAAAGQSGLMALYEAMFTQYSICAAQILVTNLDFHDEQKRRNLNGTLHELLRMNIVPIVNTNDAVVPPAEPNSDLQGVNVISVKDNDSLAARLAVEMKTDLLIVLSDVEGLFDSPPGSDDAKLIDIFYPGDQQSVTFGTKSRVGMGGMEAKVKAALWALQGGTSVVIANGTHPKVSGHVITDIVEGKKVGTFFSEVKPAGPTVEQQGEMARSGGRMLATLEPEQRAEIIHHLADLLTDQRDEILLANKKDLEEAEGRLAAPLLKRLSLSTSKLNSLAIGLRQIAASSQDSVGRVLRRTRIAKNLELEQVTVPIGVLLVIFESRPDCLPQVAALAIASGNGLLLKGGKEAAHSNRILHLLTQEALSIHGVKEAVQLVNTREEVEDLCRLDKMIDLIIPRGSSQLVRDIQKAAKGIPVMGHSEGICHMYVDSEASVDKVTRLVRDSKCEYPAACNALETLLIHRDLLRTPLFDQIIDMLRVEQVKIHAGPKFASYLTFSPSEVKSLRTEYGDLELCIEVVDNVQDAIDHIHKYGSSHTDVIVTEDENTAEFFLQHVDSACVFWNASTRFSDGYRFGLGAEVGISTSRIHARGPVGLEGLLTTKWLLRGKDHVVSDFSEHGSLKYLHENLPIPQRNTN
UniProt P53041: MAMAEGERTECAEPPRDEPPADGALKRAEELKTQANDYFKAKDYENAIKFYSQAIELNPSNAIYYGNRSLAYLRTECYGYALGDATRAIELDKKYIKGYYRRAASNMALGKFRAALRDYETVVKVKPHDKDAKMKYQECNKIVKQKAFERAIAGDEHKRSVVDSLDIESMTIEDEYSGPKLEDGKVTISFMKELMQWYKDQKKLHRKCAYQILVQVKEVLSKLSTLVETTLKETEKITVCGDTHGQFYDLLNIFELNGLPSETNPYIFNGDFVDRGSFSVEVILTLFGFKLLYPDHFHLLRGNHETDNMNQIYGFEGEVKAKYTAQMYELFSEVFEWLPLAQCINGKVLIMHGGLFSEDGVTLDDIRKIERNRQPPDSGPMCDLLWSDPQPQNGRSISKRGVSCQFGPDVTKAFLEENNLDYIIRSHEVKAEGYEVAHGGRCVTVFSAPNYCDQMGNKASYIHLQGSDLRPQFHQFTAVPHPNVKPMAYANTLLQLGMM
UniProt P53621: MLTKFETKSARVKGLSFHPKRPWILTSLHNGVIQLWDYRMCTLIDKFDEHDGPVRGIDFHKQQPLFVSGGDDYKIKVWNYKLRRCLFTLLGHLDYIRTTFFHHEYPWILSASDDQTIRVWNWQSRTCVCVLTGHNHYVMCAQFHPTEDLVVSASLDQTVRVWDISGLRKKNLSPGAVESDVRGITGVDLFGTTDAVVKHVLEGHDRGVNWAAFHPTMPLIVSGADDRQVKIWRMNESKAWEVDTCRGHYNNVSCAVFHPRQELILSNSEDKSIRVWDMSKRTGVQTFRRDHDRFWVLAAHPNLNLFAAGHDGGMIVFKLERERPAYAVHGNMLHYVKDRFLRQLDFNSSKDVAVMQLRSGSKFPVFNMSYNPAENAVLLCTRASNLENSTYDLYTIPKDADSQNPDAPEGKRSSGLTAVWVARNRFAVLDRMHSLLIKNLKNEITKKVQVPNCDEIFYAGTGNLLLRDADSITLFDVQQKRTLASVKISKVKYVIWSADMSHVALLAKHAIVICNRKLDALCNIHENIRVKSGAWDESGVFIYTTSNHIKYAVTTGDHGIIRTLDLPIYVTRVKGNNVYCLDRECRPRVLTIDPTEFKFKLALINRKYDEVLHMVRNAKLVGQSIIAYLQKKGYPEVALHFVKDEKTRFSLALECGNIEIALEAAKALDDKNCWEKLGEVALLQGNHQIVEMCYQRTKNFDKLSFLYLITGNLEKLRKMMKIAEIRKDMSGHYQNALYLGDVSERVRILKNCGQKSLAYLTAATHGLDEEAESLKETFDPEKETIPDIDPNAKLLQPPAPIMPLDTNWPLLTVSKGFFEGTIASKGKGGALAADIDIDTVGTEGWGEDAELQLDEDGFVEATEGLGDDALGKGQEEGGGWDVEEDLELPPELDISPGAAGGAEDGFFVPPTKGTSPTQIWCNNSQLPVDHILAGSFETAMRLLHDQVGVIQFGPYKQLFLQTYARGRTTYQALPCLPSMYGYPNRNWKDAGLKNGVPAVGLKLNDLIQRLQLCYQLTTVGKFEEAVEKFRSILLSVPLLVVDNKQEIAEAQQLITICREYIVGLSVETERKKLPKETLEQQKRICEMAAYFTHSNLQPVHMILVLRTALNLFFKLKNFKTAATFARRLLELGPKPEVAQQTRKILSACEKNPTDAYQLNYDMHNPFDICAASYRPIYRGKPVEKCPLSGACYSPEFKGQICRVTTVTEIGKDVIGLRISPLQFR
UniProt P60981: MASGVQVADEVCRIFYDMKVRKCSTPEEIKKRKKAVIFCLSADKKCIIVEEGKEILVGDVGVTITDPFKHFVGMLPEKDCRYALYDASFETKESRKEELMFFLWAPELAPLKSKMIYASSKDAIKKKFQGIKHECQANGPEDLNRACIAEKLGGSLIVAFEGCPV
UniProt P60468, whole entry: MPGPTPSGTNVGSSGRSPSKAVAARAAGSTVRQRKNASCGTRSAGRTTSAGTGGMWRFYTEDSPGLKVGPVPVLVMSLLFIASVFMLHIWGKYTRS
UniProt P52209: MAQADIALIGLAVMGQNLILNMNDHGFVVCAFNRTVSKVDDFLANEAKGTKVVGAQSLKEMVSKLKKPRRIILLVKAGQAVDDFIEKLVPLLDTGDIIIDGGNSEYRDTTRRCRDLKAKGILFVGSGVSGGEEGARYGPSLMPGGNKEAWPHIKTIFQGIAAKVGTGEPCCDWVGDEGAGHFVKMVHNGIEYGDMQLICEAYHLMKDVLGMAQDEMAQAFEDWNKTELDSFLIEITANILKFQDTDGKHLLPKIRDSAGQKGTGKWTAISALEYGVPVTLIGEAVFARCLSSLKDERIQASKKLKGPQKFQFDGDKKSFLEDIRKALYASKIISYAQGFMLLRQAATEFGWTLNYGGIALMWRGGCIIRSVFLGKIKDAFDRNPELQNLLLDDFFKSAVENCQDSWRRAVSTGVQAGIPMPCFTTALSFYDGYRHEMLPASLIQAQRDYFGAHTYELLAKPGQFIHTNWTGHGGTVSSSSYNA
UniProt P55769: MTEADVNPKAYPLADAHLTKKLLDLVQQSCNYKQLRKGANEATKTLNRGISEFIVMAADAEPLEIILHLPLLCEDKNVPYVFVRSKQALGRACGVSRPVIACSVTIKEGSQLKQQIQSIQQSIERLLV
UniProt P56134: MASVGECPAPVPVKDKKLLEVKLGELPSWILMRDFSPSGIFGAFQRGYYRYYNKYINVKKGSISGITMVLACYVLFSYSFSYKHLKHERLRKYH
UniProt P55265: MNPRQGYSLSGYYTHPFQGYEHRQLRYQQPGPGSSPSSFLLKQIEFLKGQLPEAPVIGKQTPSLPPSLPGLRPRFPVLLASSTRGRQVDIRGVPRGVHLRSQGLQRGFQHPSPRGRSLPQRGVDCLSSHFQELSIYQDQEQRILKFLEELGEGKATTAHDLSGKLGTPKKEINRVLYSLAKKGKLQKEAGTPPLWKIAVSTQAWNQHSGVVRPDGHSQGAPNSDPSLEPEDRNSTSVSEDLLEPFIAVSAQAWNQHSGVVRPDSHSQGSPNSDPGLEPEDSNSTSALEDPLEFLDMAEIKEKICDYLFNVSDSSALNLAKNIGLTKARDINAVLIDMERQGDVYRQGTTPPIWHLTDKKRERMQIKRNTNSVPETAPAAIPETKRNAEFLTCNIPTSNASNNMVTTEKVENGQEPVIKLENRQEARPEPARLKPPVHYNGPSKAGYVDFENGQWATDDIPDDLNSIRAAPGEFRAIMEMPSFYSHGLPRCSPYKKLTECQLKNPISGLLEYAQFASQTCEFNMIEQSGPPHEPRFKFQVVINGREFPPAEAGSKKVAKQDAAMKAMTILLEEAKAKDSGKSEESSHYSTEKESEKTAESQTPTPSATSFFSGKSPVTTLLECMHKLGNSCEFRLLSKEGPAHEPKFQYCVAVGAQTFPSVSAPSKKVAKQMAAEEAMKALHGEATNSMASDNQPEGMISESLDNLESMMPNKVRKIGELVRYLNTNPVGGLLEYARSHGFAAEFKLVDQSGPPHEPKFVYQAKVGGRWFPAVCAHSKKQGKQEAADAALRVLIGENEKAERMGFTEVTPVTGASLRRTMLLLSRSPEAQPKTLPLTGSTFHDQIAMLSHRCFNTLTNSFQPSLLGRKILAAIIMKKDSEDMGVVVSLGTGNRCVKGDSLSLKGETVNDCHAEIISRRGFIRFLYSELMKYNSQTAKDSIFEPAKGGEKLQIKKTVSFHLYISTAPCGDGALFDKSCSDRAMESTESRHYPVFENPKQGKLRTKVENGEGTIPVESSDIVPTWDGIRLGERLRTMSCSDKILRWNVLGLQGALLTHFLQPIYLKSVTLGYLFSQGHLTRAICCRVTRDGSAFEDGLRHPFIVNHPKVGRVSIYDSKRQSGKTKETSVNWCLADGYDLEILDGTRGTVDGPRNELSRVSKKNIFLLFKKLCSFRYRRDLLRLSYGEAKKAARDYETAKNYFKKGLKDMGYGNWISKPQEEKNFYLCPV

Compound: COC(=O)/C=C/c1ccccc1 [methyl cinnamate]
Test: log2 ratio of iodoacetamide-alkyne labeling of the cysteine site, DMSO over compound (competition); higher = stronger covalent engagement of the cysteine by the compound, active = 1 or more
Settings: 500 µM; treatment time 1 h; system: HEK293T cell lysate
Outline: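 Three replicates, each with duplicate channels, were prepared from HEK293T lysate (2 mg/mL) treated with vehicle or electrophile at 500 µM for 1 h at ambient temperature. Iodoacetamide alkyne was then applied for 1 h, and samples were clicked to sCIP-TMT reagents, pooled, trypsin-digested overnight at 37 °C, enriched on streptavidin, acid-eluted and analysed on Orbitrap Eclipse LC-MS/MS with FAIMS, with FragPipe quantification. The log2 competition ratio per cysteine is the mean control-channel divided by the mean compound-channel reporter intensity. Cysteines quantified in only one replicate were left out.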

Target	log2 ratio of iodoacetamide-alkyne labeling
METAP1 C14 (UniProt P53582)	inactive: 0.393
POLG C647 (UniProt P54098)	inactive: 0.0622
UniProt P55072_C522	inactive: -0.141
UniProt P55072_C572	inactive: 0.0581
UniProt P55196_C960	inactive: -0.0203
YARS C250 (UniProt P54577)	inactive: 0.402
ALDH18A1 C546 (UniProt P54886)	inactive: 0.116
KIF11 C911 (UniProt P52732)	inactive: -0.172
MSH6 C1337 (UniProt P52701)	inactive: 0.163
PPP5C C77 (UniProt P53041)	inactive: 0.0764
COPA C975 (UniProt P53621)	inactive: 0.123
RPS3A C111 (UniProt P61247)	inactive: 0.414
EIF3B C700 (UniProt P55884)	inactive: 0.0663
UniProt P61160_C20	inactive: 0.00588
HIRA C1007 (UniProt P54198)	inactive: 0.272
UniProt P60709_C272	inactive: -0.114
AK2 C40 (UniProt P54819)	inactive: 0.00613
UniProt P61289_C92	inactive: 0.311
DSTN C163 (UniProt P60981)	inactive: 0.0666

Reformatted comma-delimited: entries from further up.
Target,log2 ratio of iodoacetamide-alkyne labeling
EIF3B C700 (UniProt P55884),inactive: 0.0663
UniProt P61160_C20,inactive: 0.00588
HIRA C1007 (UniProt P54198),inactive: 0.272

(continued)

Target	log2 ratio of iodoacetamide-alkyne labeling
SEC61B C39 (UniProt P60468)	inactive: 0.641
PGD C170 (UniProt P52209)	inactive: 0.0438
UniProt P55769_C73	inactive: -0.2
UniProt P56134_C7	inactive: 0.419
UniProt P60709_C17	inactive: -0.016
UniProt P61981_C97	inactive: 0.377
HNRNPH2 C122 (UniProt P55795)	inactive: -0.35
ADAR C304 (UniProt P55265)	inactive: 0.178
ADAR C1224 (UniProt P55265)	inactive: 0.158
UniProt P62241_C71	inactive: 0.304
UniProt P59998_C21	inactive: 0.346
UniProt P60709_C285	inactive: 0.0497
GEMIN4 C9 (UniProt P57678)	inactive: -0.242
UniProt P51812_C579	inactive: -0.0435
ADAR C392 (UniProt P55265)	inactive: 0.174
UniProt P61163_C34	inactive: 0.277
AGFG1 C89 (UniProt P52594)	inactive: -0.0165
NUBP1 C25 (UniProt P53384)	inactive: 0.38
